Measurements taken from the supplement of paper PMC7411640.
Counter-ions that a name gives are not always drawn. Some of the results follow. Most values lie within the scatter of the assay; repeated measurements hardly agree.

System: MDA-MB-468
Experiment: phospho-S6 immunofluorescence (DAPI-normalised), per-plate z-score; higher = higher phospho-S6 signal (less pathway suppression)
Conditions: 24 h
Experimental: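 GPCR-targeted compound library (MedChemExpress HY-L006) tested on MDA-MB-468 PTEN-null TNBC cells in 384-well plates at 0.1, 1 or 10 uM, combined with vehicle, GDC0941 450 nM or lapatinib 1 uM, for 24 h. Phospho-S6 (S240/244) immunofluorescence normalised to DAPI and expressed as a per-plate z-score; values are the mean of biological triplicates.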

[1] = compound 0.1 µM, co-treatment: GDC0941 450 nM
[2] = compound 0.1 µM, co-treatment: lapatinib 1 uM
[3] = compound 0.1 µM, co-treatment: vehicle
[4] = compound 1 µM, co-treatment: GDC0941 450 nM
[5] = compound 1 µM, co-treatment: lapatinib 1 uM
[6] = compound 1 µM, co-treatment: vehicle
[7] = compound 10 µM, co-treatment: GDC0941 450 nM
[8] = compound 10 µM, co-treatment: lapatinib 1 uM
[9] = compound 10 µM, co-treatment: vehicle

## N#Cc1cc(NC(=O)C(=O)O)c(Cl)c(NC(=O)C(=O)O)c1 [Lodoxamide]
[1]
  phospho-S6 immunofluorescence (z-score): 0.57
[2]
  phospho-S6 immunofluorescence (z-score): 0.47
[3]
  phospho-S6 immunofluorescence (z-score): 0.83
[4]
  phospho-S6 immunofluorescence (z-score): 1.39
[5]
  phospho-S6 immunofluorescence (z-score): -0.13
[6]
  phospho-S6 immunofluorescence (z-score): 1.38
[7]
  phospho-S6 immunofluorescence (z-score): 0.92
[8]
  phospho-S6 immunofluorescence (z-score): 0.6
[9]
  phospho-S6 immunofluorescence (z-score): 0.66

## COc1ccc2[nH]cc(CCNC(C)=O)c2c1 [Melatonin]
[1]
  phospho-S6 immunofluorescence (z-score): 0.18
[2]
  phospho-S6 immunofluorescence (z-score): 0.9
[3]
  phospho-S6 immunofluorescence (z-score): -0.78
[4]
  phospho-S6 immunofluorescence (z-score): -0.75
[5]
  phospho-S6 immunofluorescence (z-score): 1.33
[6]
  phospho-S6 immunofluorescence (z-score): -1.56
[7]
  phospho-S6 immunofluorescence (z-score): -1.25
[8]
  phospho-S6 immunofluorescence (z-score): 0.24
[9]
  phospho-S6 immunofluorescence (z-score): -0.21

## CN1CCCC(n2nc(Cc3ccc(Cl)cc3)c3ccccc3c2=O)CC1 (stereo unspecified) [Azelastine (hydrochloride)]
[1]
  phospho-S6 immunofluorescence (z-score): 0.61
[2]
  phospho-S6 immunofluorescence (z-score): 1.32
[3]
  phospho-S6 immunofluorescence (z-score): -0.51
[4]
  phospho-S6 immunofluorescence (z-score): -0.67
[5]
  phospho-S6 immunofluorescence (z-score): 1.48
[6]
  phospho-S6 immunofluorescence (z-score): 0.24
[7]
  phospho-S6 immunofluorescence (z-score): 0.6
[8]
  phospho-S6 immunofluorescence (z-score): -0.25
[9]
  phospho-S6 immunofluorescence (z-score): 0.16

## CCCCCN(CCCOC)C(=O)C(CCC(=O)O)NC(=O)c1ccc(Cl)c(Cl)c1 (stereo unspecified) [Loxiglumide]
[1]
  phospho-S6 immunofluorescence (z-score): 0.42
[2]
  phospho-S6 immunofluorescence (z-score): 0.65
[3]
  phospho-S6 immunofluorescence (z-score): 0.32
[4]
  phospho-S6 immunofluorescence (z-score): 0.13
[5]
  phospho-S6 immunofluorescence (z-score): -0.69
[6]
  phospho-S6 immunofluorescence (z-score): -0.63
[7]
  phospho-S6 immunofluorescence (z-score): 0.5
[8]
  phospho-S6 immunofluorescence (z-score): 0.64
[9]
  phospho-S6 immunofluorescence (z-score): 0.51

## N=C(N)N/N=C/c1c(Cl)cccc1Cl [Guanabenz (Acetate)]
[1]
  phospho-S6 immunofluorescence (z-score): 1.3
[2]
  phospho-S6 immunofluorescence (z-score): -0.09
[3]
  phospho-S6 immunofluorescence (z-score): -0.53
[4]
  phospho-S6 immunofluorescence (z-score): 0.12
[5]
  phospho-S6 immunofluorescence (z-score): 1.05
[6]
  phospho-S6 immunofluorescence (z-score): -0.85
[7]
  phospho-S6 immunofluorescence (z-score): 0.61
[8]
  phospho-S6 immunofluorescence (z-score): -0.12
[9]
  phospho-S6 immunofluorescence (z-score): -0.2

## CCn1c2ccccc2c2cc(Nc3ccnc(NCCCN4CCOCC4)n3)ccc21
[1]
  phospho-S6 immunofluorescence (z-score): -0.69
[2]
  phospho-S6 immunofluorescence (z-score): 0.3
[3]
  phospho-S6 immunofluorescence (z-score): 0.55
[4]
  phospho-S6 immunofluorescence (z-score): -4.47
[5]
  phospho-S6 immunofluorescence (z-score): -3.91
[6]
  phospho-S6 immunofluorescence (z-score): -1.26
[7]
  phospho-S6 immunofluorescence (z-score): -3.59
[8]
  phospho-S6 immunofluorescence (z-score): -8.74
[9]
  phospho-S6 immunofluorescence (z-score): -10.3

## C[C@H](N)[C@H](O)c1cccc(O)c1 [Metaraminol (tartrate)]
[1]
  phospho-S6 immunofluorescence (z-score): 2.37
[2]
  phospho-S6 immunofluorescence (z-score): 0.17
[3]
  phospho-S6 immunofluorescence (z-score): 1.27
[4]
  phospho-S6 immunofluorescence (z-score): 0.96
[5]
  phospho-S6 immunofluorescence (z-score): 0.07
[6]
  phospho-S6 immunofluorescence (z-score): 1.27
[7]
  phospho-S6 immunofluorescence (z-score): 0.64
[8]
  phospho-S6 immunofluorescence (z-score): 0.89
[9]
  phospho-S6 immunofluorescence (z-score): 0.73

## CCC(=O)O[C@]1(C(=O)SCF)[C@H](C)C[C@H]2[C@@H]3C[C@H](F)C4=CC(=O)C=C[C@]4(C)[C@@]3(F)[C@@H](O)C[C@@]21C [Fluticasone (propionate)]
[1]
  phospho-S6 immunofluorescence (z-score): -1.73
[2]
  phospho-S6 immunofluorescence (z-score): -0.4
[3]
  phospho-S6 immunofluorescence (z-score): 0.2
[4]
  phospho-S6 immunofluorescence (z-score): -0.91
[5]
  phospho-S6 immunofluorescence (z-score): 0.37
[6]
  phospho-S6 immunofluorescence (z-score): 0.11
[7]
  phospho-S6 immunofluorescence (z-score): 0.26
[8]
  phospho-S6 immunofluorescence (z-score): -0.29
[9]
  phospho-S6 immunofluorescence (z-score): -0.43

## CCc1cc(/C(C)=N/OCc2ccc(C3CCCCC3)c(C(F)(F)F)c2)ccc1CN1CC(C(=O)O)C1 [Siponimod]
[1]
  phospho-S6 immunofluorescence (z-score): 1.22
[2]
  phospho-S6 immunofluorescence (z-score): 1.11
[3]
  phospho-S6 immunofluorescence (z-score): 0.32
[4]
  phospho-S6 immunofluorescence (z-score): 0.98
[5]
  phospho-S6 immunofluorescence (z-score): 1.09
[6]
  phospho-S6 immunofluorescence (z-score): 0.51
[7]
  phospho-S6 immunofluorescence (z-score): -0.49
[8]
  phospho-S6 immunofluorescence (z-score): 0.38
[9]
  phospho-S6 immunofluorescence (z-score): 0.15

## NCCc1ccc(O)c(O)c1 [Dopamine (hydrochloride)]
[1]
  phospho-S6 immunofluorescence (z-score): -0.6
[2]
  phospho-S6 immunofluorescence (z-score): -0.3
[3]
  phospho-S6 immunofluorescence (z-score): -0.64
[4]
  phospho-S6 immunofluorescence (z-score): -0.36
[5]
  phospho-S6 immunofluorescence (z-score): 0.6
[6]
  phospho-S6 immunofluorescence (z-score): -1.97
[7]
  phospho-S6 immunofluorescence (z-score): 0.84
[8]
  phospho-S6 immunofluorescence (z-score): 0.53
[9]
  phospho-S6 immunofluorescence (z-score): 0.15

## CC(C)NCC(O)COc1ccc(CC(N)=O)cc1 (stereo unspecified) [Atenolol]
[1]
  phospho-S6 immunofluorescence (z-score): -0.52
[2]
  phospho-S6 immunofluorescence (z-score): 0.4
[3]
  phospho-S6 immunofluorescence (z-score): 0.01
[4]
  phospho-S6 immunofluorescence (z-score): -0.04
[5]
  phospho-S6 immunofluorescence (z-score): 0.17
[6]
  phospho-S6 immunofluorescence (z-score): -0.24
[7]
  phospho-S6 immunofluorescence (z-score): 0.35
[8]
  phospho-S6 immunofluorescence (z-score): 1.32
[9]
  phospho-S6 immunofluorescence (z-score): 0.52

## CCC1(c2c[nH]cn2)Cc2ccccc2C1 [Atipamezole (hydrochloride)]
[1]
  phospho-S6 immunofluorescence (z-score): -0.07
[2]
  phospho-S6 immunofluorescence (z-score): -0.62
[3]
  phospho-S6 immunofluorescence (z-score): 0.31
[4]
  phospho-S6 immunofluorescence (z-score): -1.15
[5]
  phospho-S6 immunofluorescence (z-score): -1.25
[6]
  phospho-S6 immunofluorescence (z-score): 1.16
[7]
  phospho-S6 immunofluorescence (z-score): -0.61
[8]
  phospho-S6 immunofluorescence (z-score): 0.37
[9]
  phospho-S6 immunofluorescence (z-score): 1.24

## CC1(C)CN2C(CSC(=NC3CCCCC3)NC3CCCCC3)=CSC2=N1 [IT1t (dihydrochloride)]
[1]
  phospho-S6 immunofluorescence (z-score): -2.06
[2]
  phospho-S6 immunofluorescence (z-score): -1.02
[3]
  phospho-S6 immunofluorescence (z-score): -0.78
[4]
  phospho-S6 immunofluorescence (z-score): -2.08
[5]
  phospho-S6 immunofluorescence (z-score): -0.61
[6]
  phospho-S6 immunofluorescence (z-score): -0.93
[7]
  phospho-S6 immunofluorescence (z-score): -2.08
[8]
  phospho-S6 immunofluorescence (z-score): -0.41
[9]
  phospho-S6 immunofluorescence (z-score): -1.11

## CC(C)OC(=O)N1CCC(Oc2ncnc3c2cnn3-c2ccc(S(C)(=O)=O)cc2F)CC1
[1]
  phospho-S6 immunofluorescence (z-score): -0.12
[2]
  phospho-S6 immunofluorescence (z-score): -0.36
[3]
  phospho-S6 immunofluorescence (z-score): -0.37
[4]
  phospho-S6 immunofluorescence (z-score): 0.32
[5]
  phospho-S6 immunofluorescence (z-score): 0.05
[6]
  phospho-S6 immunofluorescence (z-score): -0.48
[7]
  phospho-S6 immunofluorescence (z-score): -0.32
[8]
  phospho-S6 immunofluorescence (z-score): -0.15
[9]
  phospho-S6 immunofluorescence (z-score): -0.38

## C[C@](N)(Cc1ccc(O)c(O)c1)C(=O)O
[1]
  phospho-S6 immunofluorescence (z-score): 0.3
[2]
  phospho-S6 immunofluorescence (z-score): -0.77
[3]
  phospho-S6 immunofluorescence (z-score): 0.14
[4]
  phospho-S6 immunofluorescence (z-score): 0.65
[5]
  phospho-S6 immunofluorescence (z-score): -0.62
[6]
  phospho-S6 immunofluorescence (z-score): 0.21
[7]
  phospho-S6 immunofluorescence (z-score): -0.58
[8]
  phospho-S6 immunofluorescence (z-score): 0.11
[9]
  phospho-S6 immunofluorescence (z-score): -0.1

## CC(C)OC(=O)CCC/C=C\C[C@@H]1[C@@H](CC[C@@H](O)CCc2ccccc2)[C@H](O)C[C@@H]1O [Latanoprost]
[1]
  phospho-S6 immunofluorescence (z-score): 0.12
[2]
  phospho-S6 immunofluorescence (z-score): -1.86
[3]
  phospho-S6 immunofluorescence (z-score): -0.84
[4]
  phospho-S6 immunofluorescence (z-score): 1.2
[5]
  phospho-S6 immunofluorescence (z-score): -0.48
[6]
  phospho-S6 immunofluorescence (z-score): -0.18
[7]
  phospho-S6 immunofluorescence (z-score): 0.61
[8]
  phospho-S6 immunofluorescence (z-score): -0.08
[9]
  phospho-S6 immunofluorescence (z-score): -0.18

## CNCCc1ccccn1 [Betahistine (dihydrochloride)]
[1]
  phospho-S6 immunofluorescence (z-score): 0.03
[2]
  phospho-S6 immunofluorescence (z-score): -0.29
[3]
  phospho-S6 immunofluorescence (z-score): -0.86
[4]
  phospho-S6 immunofluorescence (z-score): -0.29
[5]
  phospho-S6 immunofluorescence (z-score): -0.79
[6]
  phospho-S6 immunofluorescence (z-score): -0.98
[7]
  phospho-S6 immunofluorescence (z-score): -1.02
[8]
  phospho-S6 immunofluorescence (z-score): 0.1
[9]
  phospho-S6 immunofluorescence (z-score): -0.72

## CC(CN1c2ccccc2Sc2ccccc21)N(C)C (stereo unspecified) [Promethazine (hydrochloride)]
[1]
  phospho-S6 immunofluorescence (z-score): -0.01
[2]
  phospho-S6 immunofluorescence (z-score): -0.5
[3]
  phospho-S6 immunofluorescence (z-score): 0.11
[4]
  phospho-S6 immunofluorescence (z-score): -1.17
[5]
  phospho-S6 immunofluorescence (z-score): -1.41
[6]
  phospho-S6 immunofluorescence (z-score): -0.92
[7]
  phospho-S6 immunofluorescence (z-score): -1.86
[8]
  phospho-S6 immunofluorescence (z-score): -2.76
[9]
  phospho-S6 immunofluorescence (z-score): -0.84

## CN(C)CC1CCOC1(c1ccccc1)c1ccccc1 (stereo unspecified) [AVex-73 hydrochloride]
[1]
  phospho-S6 immunofluorescence (z-score): 0.89
[2]
  phospho-S6 immunofluorescence (z-score): 0.38
[3]
  phospho-S6 immunofluorescence (z-score): -0.02
[4]
  phospho-S6 immunofluorescence (z-score): 0.01
[5]
  phospho-S6 immunofluorescence (z-score): -0.94
[6]
  phospho-S6 immunofluorescence (z-score): 1.31
[7]
  phospho-S6 immunofluorescence (z-score): -0.82
[8]
  phospho-S6 immunofluorescence (z-score): -1.17
[9]
  phospho-S6 immunofluorescence (z-score): 0.2
